Test [1] addresses H. sapiens GPB5-His (H. sapiens) (UniProt Q86YW7). Nature of the test: cross-linking; 0.68 mM DSS for 30 min at RT on concentrated conditioned media with human GPA2-FLAG and GPB5-His, kept separate or combined after separate production; reducing SDS-PAGE, anti-His and anti-FLAG blots.
For test [2], the target named is H. sapiens GPA2-FLAG (H. sapiens) (UniProt Q96T91). The description is as above.

Protein sequences, listed by entry. Tags and fused reporters are not part of them. Residues count along the entry.
UniProt Q86YW7, residues 25-130: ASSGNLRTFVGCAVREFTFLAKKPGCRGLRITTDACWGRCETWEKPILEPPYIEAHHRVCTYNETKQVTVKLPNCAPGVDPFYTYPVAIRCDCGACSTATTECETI
UniProt Q96T91, residues 24-129: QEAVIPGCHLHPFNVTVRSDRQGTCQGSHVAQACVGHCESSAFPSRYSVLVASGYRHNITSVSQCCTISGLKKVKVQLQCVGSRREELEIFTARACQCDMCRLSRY

No constants are given. Whether binding was seen depends on the method and setting. Binding seen in cells or lysates may run through a third protein. Some entries that bind do so weakly or less than the wild type.

On to “H. sapiens GPB5-His (from UniProt Q86YW7 25-130)”, for which, in test [1], the binding entry was “binds”.
As to “H. sapiens GPA2-FLAG (from UniProt Q96T91 24-129)”, the binding entry in test [1] and in test [2] was “binds” throughout.
